# Laboratory results published in PubChem BioAssay AID445 (National Center for Advancing Translational Sciences (NCATS), 2006).
# The other results are listed elsewhere or left out. The main result of the screen is listed elsewhere. These columns were measured beside it and carry no call. Compounds called inactive in the main read-out are mostly missing here. Potencies come from curve fits of mixed quality, noted in brackets.
# Assay: IkB Signaling
# Conditions: ABC-DLBCL IkBa-CBG/CBR dual luciferase ratio (green luciferase fused to IkBa over red control in OCI-Ly3 lymphoma cells), 4 h
# Summary of the method: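 Luminescence ratio of IκBα-fused green versus native red beetle luciferase in OCI-Ly3 cells, 4 h post-doxycycline with compound; red signal alone, scaled from basal (0%) to zero light (-100%), flagged nonspecific or cytotoxic effects.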
# [1] = measured here: control luc red channel unless noted
# [2] = measured here: IkB-luc green channel
# [3] = measured here: control luc red channel
structure (smiles),measurement,setting,value
CC(C)CNS(=O)(=O)c1ccc(C(=O)Nc2ccc3c(c2)OCCO3)cc1,AC50,[1],"31.6 µM [falling, partial curve]"
CCOc1ccc(-c2nc(SCC(=O)Nc3ccc4c(c3)OCCO4)c(-c3ccc(F)cc3)[nH]2)cc1,AC50,[1],"1 µM [falling, full curve, poor fit]"
CCc1cccc(-n2nnc(-c3nc(-c4cccs4)no3)c2N)c1,AC50,[1],"1.26 µM [rising, full curve]"
COc1cccc(OC)c1C(=O)Nc1cccc(-c2nc3cc(C)cc(C)c3o2)c1,AC50,[1],"10 µM [falling, partial curve]"
COc1ccc(NC(=O)c2noc3c2CSc2ccccc2-3)cc1Cl,AC50,[1],"25.1 µM [falling, single point]"
O=C(Cn1nc(Cc2cccnc2)c2ccccc2c1=O)Nc1cccc(C(F)(F)F)c1,AC50,[1],"39.8 µM [falling, single point]"
Cc1ccc(NC(=O)Cn2c(C)cc(C)c(C#N)c2=O)cc1F,AC50,[1],"39.8 µM [falling, single point]"
COc1cccc2sc(Nc3nnc(-c4cccs4)o3)nc12,AC50,[2],"39.8 µM [rising, partial curve]"
same,AC50,[3],"31.6 µM [falling, partial curve]"
COc1ccc(-c2nc3ccccc3s2)cc1NC(=O)c1cc2ccccc2o1,AC50,[1],"0.398 µM [rising, full curve]"
Cn1c(CCN2CCCCC2)nc2cc(NS(=O)(=O)c3ccc(Cl)cc3)ccc21,AC50,[1],"15.8 µM [falling, partial curve]"
Cc1ccc(NC(=O)CCNS(=O)(=O)c2cccc3nsnc23)cc1,AC50,[1],"25.1 µM [falling, partial curve, poor fit]"
CC1C=CCC2C(=O)N(c3cccc(C(=O)N4CCN(c5ccc(F)cc5)CC4)c3)C(=O)C12 (stereo not given),AC50,[1],"25.1 µM [falling, single point]"
CN(CC(=O)Nc1ccc(F)cc1F)S(=O)(=O)c1ccc(C(=O)N2CCOCC2)s1,AC50,[1],"15.8 µM [falling, partial curve]"
Cc1ccc2nc(CSc3nnc(NC(=O)COc4ccccc4)s3)cc(=O)n2c1,AC50,[1],"2 µM [falling, partial curve]"
CCOC(=O)c1ccc(NC(=O)c2cc(=O)c3cc(CC)ccc3o2)cc1,AC50,[1],"3.98 µM [rising, full curve]"
NC(=O)c1c(NC(=O)CSc2nnc(Cc3ccccc3)n2Cc2ccco2)sc2c1CCC2,AC50,[1],"2.51 µM [falling, full curve]"
COc1cccc(CNC(=O)C(NS(=O)(=O)c2ccc3nc(C)sc3c2)C(C)C)c1 (stereo not given),AC50,[1],"15.8 µM [falling, partial curve, poor fit]"
Fc1ccc([C@H]2CCNC[C@H]2COc2ccc3c(c2)OCO3)cc1,AC50,[1],"39.8 µM [falling, partial curve]"
Cc1ccc(C(CC(=O)Nc2cc(C)cc(C)c2)N2Cc3ccccc3C2=O)cc1 (stereo not given),AC50,[1],"25.1 µM [falling, single point]"
Cc1cccc(NC(=O)CSc2nnc(C)c(=O)[nH]2)c1,AC50,[1],"10 µM [rising, partial curve, poor fit]"
N=c1c2c(-c3ccccc3)c(-c3ccccc3)n(Cc3ccco3)c2ncn1Cc1ccco1,AC50,[1],"3.98 µM [falling, full curve]"
CCS(=O)(=O)NCC(c1ccco1)N1CCN(c2ccc(OC)cc2)CC1 (stereo not given),AC50,[2],"3.98 µM [rising, partial curve]"
same,AC50,[3],"3.98 µM [rising, partial curve]"
Cc1cc(/C=C\c2ccc3cc(N(C)C)ccc3[n+]2C)c(C)n1-c1ccccc1,AC50,[1],"12.6 µM [falling, partial curve]"
O=C(c1ccccc1)c1nnc(-c2ccncc2)o1,AC50,[1],"15.8 µM [falling, partial curve]"
COc1ccc(S(=O)(=O)N(C)Cc2nc(-c3cccc(C)c3)no2)cc1,AC50,[1],"20 µM [falling, single point]"
CC(C)Cc1cc(C(=O)Nc2cc(Br)ccc2O)no1,AC50,[1],"39.8 µM [rising, single point] [measured here: IkB-luc green channel]"
O=C(CSc1nc2ccsc2c(=O)n1Cc1ccccc1F)NCc1ccccc1,AC50,[1],"2 µM [rising, partial curve]"
CS(=O)(=O)c1nc(-c2cccs2)cc(C(F)(F)F)n1,AC50,[2],"6.31 µM [rising, single point]"
same,AC50,[3],"10 µM [falling, partial curve]"
CCc1ccc(NC(=O)N(Cc2ccc(C)cc2)Cc2cccn2-c2nnc(N3CCCC3=O)s2)cc1,AC50,[1],"5.01 µM [falling, partial curve]"
COC(=O)C1=C(C)N(C)C(C)=C(C(=O)OC)C1c1ccc(F)c(Br)c1,AC50,[1],"15.8 µM [falling, single point]"
CCc1ccc(CNC(=O)CCN2C(=O)COc3ccccc32)cc1,AC50,[1],"39.8 µM [falling, single point]"
CCOC(=O)c1cc(-c2ccccc2)n(CCCC(=O)Nc2cccc(Cl)c2C)c1C,AC50,[1],"3.16 µM [rising, partial curve]"
CSc1ccc(CCNC(=O)C(C)n2c(C)c3cnn(-c4ccccc4)c(=O)c3c2C)cc1 (stereo not given),AC50,[1],"15.8 µM [falling, partial curve]"
COc1cc(OC)cc(C(=O)Nc2c(C(=O)Nc3ccc(F)cc3)oc3ccccc23)c1,AC50,[1],"2 µM [falling, full curve]"
Cc1ccc2c(CSc3nncs3)cc(=O)oc2c1,AC50,[1],"12.6 µM [falling, partial curve]"
O=C(Cn1c(=O)n(Cc2ccccc2)c(=O)c2oc3ccccc3c21)Nc1ccc(Cl)cc1,AC50,[1],"3.98 µM [falling, full curve]"
CC(=O)Nc1cc(C(=O)NCc2ccc(F)cc2Cl)ccc1Sc1ccc(Cl)cc1,AC50,[1],"25.1 µM [falling, partial curve]"
CCOC(=O)c1ccccc1N1C(=O)CSC1=S,AC50,[1],"39.8 µM [rising, single point] [measured here: IkB-luc green channel]"
Cc1ccc(CCNc2nc3c(S(=O)(=O)c4ccc(C)cc4)nnn3c3ccsc23)cc1,AC50,[1],"5.01 µM [falling, partial curve]"
Cc1ccc(-n2ncc3c(NCCCc4ccccc4)ncnc32)cc1C,AC50,[1],"3.98 µM [falling, full curve]"
Cc1ccc(-c2c3c(=O)n(C)c(=O)n(C)c3c3c(C(F)(F)F)nc4ccccc4n23)cc1,AC50,[1],"20 µM [falling, single point]"
CCOC(=O)c1[nH]c(C)c(CCC(=O)Nc2ccc(N(CC)CC)cc2C)c1C,AC50,[1],"1 µM [falling, partial curve, poor fit]"
CCOc1ccc(Cl)cc1S(=O)(=O)n1nnc2ccccc21,AC50,[1],"10 µM [falling, partial curve]"
COc1ccc2oc(=N)c(C(=O)Nc3ccccc3)cc2c1,AC50,[1],"20 µM [falling, partial curve]"
CCOc1ccc(N(C(=O)c2ccc(C)cc2)S(=O)(=O)c2ccc3c(c2)n(C)c(=O)n3C)cc1,AC50,[1],"0.251 µM [rising, full curve, poor fit]"
COc1cccc(NC(=O)c2ccc(S(=O)(=O)N3CCCCC3)cc2)c1,AC50,[1],"7.94 µM [falling, partial curve]"
Cc1ccc2cccc(NC(=O)c3ccc(-c4cc(Cl)ccc4Cl)o3)c2n1,AC50,[1],"6.31 µM [falling, partial curve, poor fit]"
Cc1ccc(C)n1-c1nnc(N2CCCC(C(=O)NCc3ccc(F)cc3)C2)s1 (stereo not given),AC50,[1],"10 µM [falling, partial curve]"
O=C(NCc1ccc(Cl)cc1)c1cc2ccccc2o1,AC50,[1],"25.1 µM [falling, partial curve, poor fit]"
Cc1ccc(Cl)cc1N1CCN(C(=O)Cn2cnc3nc4c(cc3c2=O)CCCC4)CC1,AC50,[1],"25.1 µM [falling, partial curve]"
O=C(O)CCc1ccc(-c2cccs2)n1NC(=O)c1ccc(O)cc1,AC50,[1],"6.31 µM [falling, partial curve]"
O=C(NCc1cccc(Br)c1)c1cccn1-c1nnc(N2CCCCC2)s1,AC50,[1],"31.6 µM [falling, single point]"
O=C(CC(c1ccccc1)c1cc(Br)ccc1O)NCC1(c2ccccc2)CCCC1 (stereo not given),AC50,[1],"3.16 µM [falling, full curve]"
COc1ccc(CNC(=O)CCCc2cn(C)c3ccccc23)c(OC)c1,AC50,[1],"25.1 µM [falling, partial curve, poor fit]"
O=C(CCN1C(=O)COc2ccccc21)NCCN1CCN(c2cccc(Cl)c2)CC1,AC50,[1],"39.8 µM [falling, partial curve]"
CCCc1[nH]nc2c1C(C1CCCCC1)C(C#N)=C(N)O2 (stereo not given),AC50,[1],"15.8 µM [falling, partial curve]"
O=C(CSc1nnnn1C1CCCC1)Nc1cccc(NC(=O)c2ccco2)c1,AC50,[1],"6.31 µM [falling, partial curve]"
COc1ccc(O)c(-c2cc(-c3cccc(Br)c3)n[nH]2)c1,AC50,[2],"39.8 µM [falling, single point]"
same,AC50,[3],"25.1 µM [falling, single point]"
O=C(CCS(=O)(=O)c1ccc2c(c1)NC(=O)CO2)Nc1cccc(C(F)(F)F)c1,AC50,[1],"0.01 µM [falling, full curve, poor fit]"
COc1cc(C2c3c(-c4cc(Cl)c(C)cc4O)n[nH]c3C(=O)N2Cc2cccnc2)ccc1O (stereo not given),AC50,[1],"10 µM [falling, partial curve]"
COc1ccc(NC(=O)Cn2nnc(C(=O)NCc3ccccc3Cl)c2N)cc1Cl,AC50,[1],"0.0316 µM [falling, full curve, poor fit]"

# Another view of some results above:
structure (smiles)	measurement	setting	value
CS(=O)(=O)c1nc(-c2cccs2)cc(C(F)(F)F)n1	AC50	[3]	10 µM [falling, partial curve]
CCc1ccc(NC(=O)N(Cc2ccc(C)cc2)Cc2cccn2-c2nnc(N3CCCC3=O)s2)cc1	AC50	[1]	5.01 µM [falling, partial curve]
COC(=O)C1=C(C)N(C)C(C)=C(C(=O)OC)C1c1ccc(F)c(Br)c1	AC50	[1]	15.8 µM [falling, single point]
CCc1ccc(CNC(=O)CCN2C(=O)COc3ccccc32)cc1	AC50	[1]	39.8 µM [falling, single point]
CCOC(=O)c1cc(-c2ccccc2)n(CCCC(=O)Nc2cccc(Cl)c2C)c1C	AC50	[1]	3.16 µM [rising, partial curve]
CSc1ccc(CCNC(=O)C(C)n2c(C)c3cnn(-c4ccccc4)c(=O)c3c2C)cc1 (stereo not given)	AC50	[1]	15.8 µM [falling, partial curve]
COc1cc(OC)cc(C(=O)Nc2c(C(=O)Nc3ccc(F)cc3)oc3ccccc23)c1	AC50	[1]	2 µM [falling, full curve]
Cc1ccc2c(CSc3nncs3)cc(=O)oc2c1	AC50	[1]	12.6 µM [falling, partial curve]
O=C(Cn1c(=O)n(Cc2ccccc2)c(=O)c2oc3ccccc3c21)Nc1ccc(Cl)cc1	AC50	[1]	3.98 µM [falling, full curve]
CC(=O)Nc1cc(C(=O)NCc2ccc(F)cc2Cl)ccc1Sc1ccc(Cl)cc1	AC50	[1]	25.1 µM [falling, partial curve]
CCOC(=O)c1ccccc1N1C(=O)CSC1=S	AC50	[1]	39.8 µM [rising, single point] [measured here: IkB-luc green channel]
Cc1ccc(CCNc2nc3c(S(=O)(=O)c4ccc(C)cc4)nnn3c3ccsc23)cc1	AC50	[1]	5.01 µM [falling, partial curve]
Cc1ccc(-n2ncc3c(NCCCc4ccccc4)ncnc32)cc1C	AC50	[1]	3.98 µM [falling, full curve]
Cc1ccc(-c2c3c(=O)n(C)c(=O)n(C)c3c3c(C(F)(F)F)nc4ccccc4n23)cc1	AC50	[1]	20 µM [falling, single point]
CCOC(=O)c1[nH]c(C)c(CCC(=O)Nc2ccc(N(CC)CC)cc2C)c1C	AC50	[1]	1 µM [falling, partial curve, poor fit]
CCOc1ccc(Cl)cc1S(=O)(=O)n1nnc2ccccc21	AC50	[1]	10 µM [falling, partial curve]
COc1ccc2oc(=N)c(C(=O)Nc3ccccc3)cc2c1	AC50	[1]	20 µM [falling, partial curve]
CCOc1ccc(N(C(=O)c2ccc(C)cc2)S(=O)(=O)c2ccc3c(c2)n(C)c(=O)n3C)cc1	AC50	[1]	0.251 µM [rising, full curve, poor fit]
COc1cccc(NC(=O)c2ccc(S(=O)(=O)N3CCCCC3)cc2)c1	AC50	[1]	7.94 µM [falling, partial curve]
Cc1ccc2cccc(NC(=O)c3ccc(-c4cc(Cl)ccc4Cl)o3)c2n1	AC50	[1]	6.31 µM [falling, partial curve, poor fit]
